Data on one molecule can be found in patent publication US20040006094A1, “4-pyrimidinamine derivatives, pharmaceutical compositions and related methods” (priority 2000, published 2004).

The structures appear in SMILES notation.

The test has as its target differentiated P19 neurons. Briefly: Differentiated P19 excitotoxicity assay: neuroprotection by known kinase inhibitors against glutamate/glycine (Alamar Blue, CFDA). It counts as cell-based, murine. The note with it: 3 mM glutamate, 1 mM glycine; mean of three separate curves. The protocol:
Data points are the average±standard error of three separate experiments.
These cells were used to measure the effects of various known kinase inhibitors (Compound Identification (ID) column in Table I) upon cytotoxicity-induced by NMDA. First, P19 cells were differentiated as described in Example 2. Then cells were exposed to 3 mM of glutamate in the presence of 1 mM glycine.
Cell viability was determined. Compounds that prevented excitotoxicity were determined by measuring the percentage of viable cells compared to differentiated P19 cells that were not presented with a toxic insult (Table I).
Cell viability was measured using two methods. The first method was a confocal, single-cell fluorescence imaging-based method using the live cell dye carboxy-fluorescein diacetate (CFDA). CFDA labels the cell bodies and processes of living cells. […] CFDA fluorescence was measured using a modified Attofluor Imager device (Atto Instruments, Rockville Pike, Md.). […]
The second method for measuring cell viability was a plate reader method. […] Baseline fluorescence counts were read at room temperature in a Wallac plate reader immediately after addition of Alamar blue. Fluorescence counts of cell viability were taken the same way after 1 hour incubation at 37° C. Fluorescence was expressed as a percent of control, untreated cells after subtraction of background fluorescence. […]
Background: Resazurin is reduced to fluorescent resorufin, in cell work by metabolically active cells.

`C[S+]([O-])c1ccc(-c2nc(-c3ccncc3)c(-c3ccc(F)cc3)[nH]2)cc1` (stereo not shown) [SB203580]: the “IC50 for Neuroprotection [lower-upper 95% C.I.]” value was “Ineffective”.
